Source: patent US20240247029A1, “INTERLEUKIN-1 RECEPTOR MODULATORS AND USES THEREOF” (VALORISATION HSJ, LIMITED PARTNERSHIP, priority 2020, published 2024)
Some of these results come from one statement about several compounds together.

Tested on: timed-pregnant CD-1 mice
Test: LPS-induced preterm birth model in mice
Type: in vivo, mouse
Conditions: 2 mg/kg/day subcutaneous, LPS 10 μg intraperitoneal on G16.5; delivery before G18.5; LPS alone ˜80%
Protocol: FIG. 6 is a graph showing the effects of peptides 1 and 2 on prevention of PTB. In brief, pregnant dams on day 16.5 of gestation (G16.5) were subcutaneously pretreated with peptides 1 and 2 (2 mg/kg/day subcutaneous injections) or vehicle, followed by LPS (10 μg intraperitoneal injection), and observed for delivery of pups. A dam was considered as delivering preterm if at least one pup was delivered before G18.5. n=4-5 dams per treatment group.
Timed-pregnant CD-1 mice at 16.5 days of gestation (G16.5) were anesthetized with 2% isoflurane and received an intraperitoneal injection of lipopolysaccharide (LPS, n=4 per group, a single dose of 10 ug) (Nadeau-Vallée et al., 2015; Kakinuma et al., 1997). A dosage of 2 mg/kg/day of peptides 1 and 2 or vehicle was respectively injected subcutaneously in the neck, every 12h until delivery. On G16.5, a dose of 1 mg/kg was injected 30 min before stimulation with LPS (to allow distribution of drugs to target tissues) and 1 mg/kg was injected 12h after stimulation (n=4 each treatment). Mice delivery was assessed every hour until term (G19-G19.5). […] Data was analyzed using Prism 7 (GraphPad Software, San Diego, CA, USA) with one-way ANOVA and Dunnett's test for multiple comparisons. Outliers were detected using Grubb's test. Results were treated as significant when p was <0.05 and expressed as mean+SEM. […]

Substance	PTB rate
[(3R, 4S)-4-(N3)Agl^3]-1 [2c]	40-50%
[(3S,4S)-4-(NCS)Agl^3]-1 [2d]	40-50%
